The supplement of paper PMC10338343
± gives the standard deviation. The list shows a part of the results, in another mix than the full data. Many of these values have a large error.

What was measured:
[1] = system: MILI (PIWIL2) piRISC loaded with L1MC piRNA (26 nt); test: pre-steady-state target cleavage rate (min^-1); MIWI and MILI are mouse PIWI proteins and EfPiwi is from a freshwater sponge; tags in brackets are library labels; higher = faster piRNA-guided slicing of the target; conditions: guide: L1MC piRNA 5'p-UAACUAAAUACUAUGCAAGCUGUAGG
Outline: (§1)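 The pre-steady-state cleavage rate was calculated from a burst-and-steady-state fit. Data came from Cleave-'n-Seq, in which […] transcribed, DNA-blocked target RNA library was mixed with 1 nM active affinity-purified piRISC carrying one synthetic guide, with or without 500 nM GTSF1 partner protein, in HEPES–potassium acetate buffer at 33 °C for 0–8 or 0–960 min. Uncleaved targets were sequenced and normalised to depth and to weakly complementary targets, three trials were pooled, and k3 was capped at 0.0001 min^-1.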

[2] = system: MIWI (PIWIL1) piRISC loaded with L1MC piRNA (30 nt); test: as above; conditions: guide: L1MC piRNA 5'p-UAACUAAAUACUAUGCAAGCUGUAGGUCCU
Outline: as §1

[3] = auxiliary factor: 500 nM mouse GTSF1
[4] = auxiliary factor: none (no GTSF1)
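Also: 1 nM active piRISC with 0.1 nM target library at 33 °C single turnover.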

| Sequence | pre-steady-state target cleavage rate [1, 3] | pre-steady-state target cleavage rate [1, 4] | pre-steady-state target cleavage rate [2, 3] | pre-steady-state target cleavage rate [2, 4] |
| --- | --- | --- | --- | --- |
| UCCUGGAACAGCUUGCAUGAGUAUUUAGUUA | 0.00284 ± 0.0051 | 0.00252 ± 0.0028 | 0.00209 ± 0.0069 | 0.000965 ± 0.0085 |
| UCCUGGAUGUCGAACCAUAGUUUUAGUUA |  | 0.000201 ± 0.014 |  | 0.000271 ± 0.015 |
| UCCUGGUACAGCUUGCAUAGUAAAUAGUAA |  | 0.00187 ± 0.005 |  | 0.00221 ± 0.004 |
| UCCUGGAUCAGCUUGCAUAGAUAAAUCAAA [g11:g22:cont:t1A] |  | 0.000259 ± 0.0084 |  | 0.000283 ± 0.011 |
| UCCUGGAUGUCGAAGGAUAGAAUUUAGUUA |  | 0.00015 ± 0.027 |  | 0.000359 ± 0.016 |
| UCCUGGAUGUCGAUGCAUAGCUAUUUAGUUA |  | 0.000341 ± 0.018 |  | 0.000857 ± 0.0087 |
| UCCUGGAUCAGCUUGCUAAGUAUUUAGUAA |  | 0.00186 ± 0.0029 |  | 0.00201 ± 0.0028 |
| UCCUGGAUGUCCUUGCAUAGUUAUUAGUAA |  | 0.00121 ± 0.0057 |  | 0.000766 ± 0.0099 |
| UCCUGGAUGUCGAACCAUAAGUAUUUAGUUA |  | 0.000382 ± 0.012 |  | 0.000172 ± 0.015 |
| UCCUGGUACAGCUUGCAUUCUAUUUAGUUA |  | 0.00368 ± 0.0052 |  | 0.00293 ± 0.0032 |
| UCCUGGAACAGCAUGCAUAGUAUUUACAAA |  | 0.00114 ± 0.0058 |  | 0.00143 ± 0.0043 |
| UCCUGGAUGUCGUUGCAAAGUAUUUACUUA | 0.000318 ± 0.022 |  |  | 0.000357 ± 0.025 |
| UCCUCCUACACGAUGCAUAGUAUUUACAAA |  | 0.000892 ± 0.0064 |  | 0.000779 ± 0.0094 |
| UCCUGGAUGUCGUUGCUUAGUAAUUAGUUA |  | 0.00286 ± 0.0034 |  | 0.000709 ± 0.011 |
| UCCUGGAUGUCGAACCAUUGUAUUUAGUAA |  | 0.000432 ± 0.0081 |  | 0.000431 ± 0.012 |
| UCCUGGAUGUCCUUGCAUAGAAUUUAGAUA |  | 0.000707 ± 0.0078 |  | 0.00143 ± 0.0055 |
| UCCUGGAUGUCCUUGCAAAGAAUUUAGUUA | 0.00356 ± 0.0052 |  |  | 0.00114 ± 0.0056 |
| UCCUGGAUGUCCUUGCAUAGUAUUAAGUAA |  | 0.00132 ± 0.0048 |  | 0.00113 ± 0.0062 |
| UCCUGGAUGUCGAACGUUAGUAUUAUGUUA |  | 0.000348 ± 0.014 |  | 0.00025 ± 0.024 |
| UCCUCCUACAGCUUGCAUAGUUAUUAGAAA |  | 0.000804 ± 0.0065 |  | 0.00117 ± 0.0063 |
| UCCUGGAUGUCGAACGUAAGUUUUAAGUUA |  | 0.000123 ± 0.044 |  | 0.000124 ± 0.028 |
| UCCUGGAUGUCGAACGUAAGUAUUUAGUUC [g2:g12:cont:t1C] |  | < 0.0001 | 0.000109 ± 0.05 |  |
| UCCUGGAUGUCGAUGCAUAGUAUAAUCAAA [g8:g17:cont:t1A] |  | 0.000578 ± 0.0079 |  | 0.000416 ± 0.018 |

Record cards (already shown):
UCCUGGAUCAGCUUGCAUAGAUAAAUCAAA [g11:g22:cont:t1A] reads pre-steady-state target cleavage rate [1, 4]: 0.000259 ± 0.0084; pre-steady-state target cleavage rate [2, 4]: 0.000283 ± 0.011
UCCUGGAUGUCCUUGCAUAGUAUUAAGUAA reads pre-steady-state target cleavage rate [1, 4]: 0.00132 ± 0.0048; pre-steady-state target cleavage rate [2, 4]: 0.00113 ± 0.0062
UCCUGGAACAGCUUGCAUGAGUAUUUAGUUA reads pre-steady-state target cleavage rate [1, 3]: 0.00284 ± 0.0051; pre-steady-state target cleavage rate [1, 4]: 0.00252 ± 0.0028; pre-steady-state target cleavage rate [2, 3]: 0.00209 ± 0.0069; pre-steady-state target cleavage rate [2, 4]: 0.000965 ± 0.0085

Following part:

| Sequence | pre-steady-state target cleavage rate [1, 3] | pre-steady-state target cleavage rate [1, 4] | pre-steady-state target cleavage rate [2, 3] | pre-steady-state target cleavage rate [2, 4] |
| --- | --- | --- | --- | --- |
| UCCUGGAUCAGCUUGCAUACAAUUUACAAA |  | 0.00073 ± 0.0073 |  | 0.00109 ± 0.0071 |
| UCCUGGAUGAGCUUGCAUUCAAUUUAGAAA |  | 0.000307 ± 0.019 |  | 0.000186 ± 0.017 |
| UCCUGGAACAGCUACGAUAGUAUUUAGAAA |  | 0.00036 ± 0.013 |  | 0.000502 ± 0.01 |
| UCCUGGAACAGCUUGCAAUCUAUUUAGUAA |  | 0.00065 ± 0.0091 |  | 0.00179 ± 0.0032 |
| UCCUCCUACAGCUUGCUAUGUAUUUACAAA |  | 0.00076 ± 0.0052 |  | 0.00046 ± 0.01 |
| UCCUGCUACAGCUUGCAUUCAAUUUAGUAA |  | 0.000927 ± 0.0057 |  | 0.000662 ± 0.011 |
| UCCUGGAUGUCGAAGCAUUGUUUUUAGUUA | 0.000411 ± 0.032 |  | 0.000392 ± 0.033 |  |
| UCCUGGAUGUCGAACGUAAAUAUUUAGUUA |  | 0.000109 ± 0.032 |  | 0.000536 ± 0.0089 |
| UCCUGGAUGUCGAUGCUUAGUAUAUAGUUA |  | 0.00179 ± 0.0041 |  | 0.000627 ± 0.011 |
| UCCUGGAUCAGCUUGGUAAGUAUUUACAAA |  | 0.00059 ± 0.0088 |  | 0.000777 ± 0.0086 |
| UCCUGGAUGUCGAACGUAUCUAUUUAGUUU [g2:g10:cont:t1U] |  | 0.000117 ± 0.018 | 0.000179 ± 0.023 |  |
| UCCUGCUACAGCAACCAUAGUAUUUACAAA |  | 0.000214 ± 0.018 |  | 0.00065 ± 0.017 |
| UCCUGGAUGUCGAACGUAAGUAUUUAGUAA | 0.000346 ± 0.018 |  | 0.000104 ± 0.069 |  |
| UCCUGGAUGUCCUUGCACUAGUAUUUAGUUA |  | 0.000608 ± 0.0083 |  | 0.000802 ± 0.0085 |
| UCCUGGAUGUCGAACGUAUUUAUUUAGUUA |  | < 0.0001 | 0.000589 ± 0.011 |  |
| UCCUGCUACAGCUUGCAUUCAUAAAUCAAA [g13:g25:cont:t1A] |  | 0.000134 ± 0.03 |  | 0.000559 ± 0.017 |
| UCCUGGAUGUCGAACGUAAGUAUUUAGUAUA | 0.000139 ± 0.038 |  |  | 0.000115 ± 0.056 |
| UCCUGGAUGUCGAACGUAAGAUUUUAGUUA |  | 0.00011 ± 0.025 |  | 0.000295 ± 0.012 |
| UCCUGGAUGUCGAACGUUUCUAUUUAGUUA |  | 0.000239 ± 0.016 |  | 0.000206 ± 0.021 |
| UCCUGGUACAGCUUGCAUAGUAUUUUCAUA |  | 0.00207 ± 0.0046 |  | 0.00236 ± 0.0032 |
| UCCUGGUACAGCUUGCAUACAUUUUAGAAA |  | 0.00167 ± 0.0064 |  | 0.000306 ± 0.009 |
| UCCUGGAACAGCUUCCAUAGUAUUUAGAUA |  | 0.000498 ± 0.01 |  | 0.000815 ± 0.0089 |
| UCCUGGAUGUCGAAGCUUACUAUUUAGUUA |  | 0.000235 ± 0.023 |  | 0.000686 ± 0.0074 |

| Sequence | pre-steady-state target cleavage rate [1, 3] | pre-steady-state target cleavage rate [1, 4] | pre-steady-state target cleavage rate [2, 3] | pre-steady-state target cleavage rate [2, 4] |
| --- | --- | --- | --- | --- |
| UCCUCCUACAGCUUGCAUACAUUUUAGAAA |  | 0.000545 ± 0.0069 |  | 0.000259 ± 0.011 |
| UCCUGGAUGUCGAAGCAUAAUAUUUAGUUA |  | 0.00056 ± 0.008 |  | 0.000208 ± 0.0099 |
| UCCUGCUAGAGCUUCCAUAGUAUUUAGUUA |  | 0.00119 ± 0.005 |  | 0.0016 ± 0.0031 |
| UCCUGGUACACCUUGCAUAGUAUUUAGAAA |  | 0.00116 ± 0.0063 |  | 0.00201 ± 0.0038 |
| UCCUGGAUCAGCUUGCUUAGUAUUUACAAA |  | 0.000967 ± 0.0059 |  | 0.00145 ± 0.0051 |
| UCCUGGAUGUCCUUGCAUAGUAAUUUGUUA |  | 0.00125 ± 0.0043 |  | 0.00192 ± 0.0054 |
| UCCUGGAUGUCGAACCAUACUUUUUAGUUA |  | 0.000226 ± 0.015 |  | 0.000336 ± 0.012 |
| UCCUGGAUGUCGAACCAUAGUAUUUACAUA | 0.000289 ± 0.015 |  | 0.000187 ± 0.024 |  |
| UCCUGGAUGUCGAACGUAAGCUAUUUAGUUA |  | 0.000302 ± 0.014 |  | 0.000291 ± 0.012 |
| UCCUGGAUGUCGAAGCAUAGUAAAAAGUUA |  | 0.000161 ± 0.024 |  | 0.000222 ± 0.019 |
| UCCUGGAUGUCGAACCAUAGAUAUUUAGUUA |  | 0.000118 ± 0.04 |  | 0.000383 ± 0.014 |
| UCCUGGUACAGCUUGCAAUCAUAAAUCAAA [g14:g24:cont:t1A] |  | 0.000708 ± 0.011 |  | 0.00123 ± 0.0079 |
| UCCUGGAUGUCGAACGUAUCUAAAAAGUUA |  | 0.000217 ± 0.018 |  | 0.000103 ± 0.021 |
| UCCUCCUACAGCUUGCAUACAAUUUUCAAA |  | 0.000677 ± 0.0077 |  | 0.000297 ± 0.012 |
| UCCUGCUACAGCUUCGUUAGUAUUUACAAA |  | 0.000113 ± 0.024 |  | 0.000259 ± 0.027 |
| UCCUGGAUGUCGAAGCAAAGUAUUUAGUAA |  | 0.00019 ± 0.023 |  | 0.000527 ± 0.01 |
| UCCUGGAUGUCGAAGCAAAGUAUAUAGUUA |  | 0.000159 ± 0.046 |  | 0.000194 ± 0.019 |
| UCCUGGAUGAGCAUGCAUAGUAUUUAGAAA |  | 0.00148 ± 0.004 |  | 0.00165 ± 0.0041 |
| UCCUGGUACAGCUUCCAUAGUAUUUACUUA |  | 0.00104 ± 0.0087 |  | 0.000969 ± 0.0072 |
| UCCUGGAUGAGCUUGCAAUCAUAAAUCAAA [g14:g21:cont:t1A] |  | 0.000276 ± 0.019 |  | 0.000303 ± 0.019 |
| UCCUGGAUGUCCUUCGUUAGUAUUUAGUAA |  | 0.000415 ± 0.01 | 0.000956 ± 0.013 |  |
| UCCUGGAUGUCGAACCAUAGUAUUUAGUUG [g2:g15:cont:t1G] |  | 0.00014 ± 0.016 |  | 0.000327 ± 0.013 |
